Patent publication US20100273732A1, “COMBINATION METHODS OF TREATING CANCER” (priority 2003, published 2010)

What was measured:
LnCap (prostate) cells = experiment: alamarBlue proliferation inhibition, drug combination experiments, LnCap; assay type: cell-based; settings: Homo sapiens, 96 h, agent alone, 4 days, read-out: 50% inhibition Effective Dose
Method: (§1) Drug combination experiments were performed on five human cancer cell lines: T24 (bladder carcinoma), LnCap (prostate), MCF7 (breast), DLCL (non-Hodgkin's lymphoma) and LCC18 (colon carcinoid). Each cell line was cultured and incubated at 37° C. in its required medium: MEM a (10% FCS), RPMI 1640 (10% FCS), DME HG (10% FCS), enhanced RPMI (10% FCS), and Hites medium (5% FCS), respectively.
(§2) Adherent cell lines (T24, LnCap, MCF7 and LCC18) were plated on 96 well plates 24 hours before treatment with SAHA and anticancer agents, to allow time for the cells to attach to the well bottoms. DLCL, a suspension cell line, was plated on 96 well plates on the same day of the experiment. […]
(§3) After treatment, cells were incubated at 37° C. for 4 days. […] The reduction was measured by fluorescence using a SpectaMax GeminiXS® spectrofluorometric microtiter well plate reader (Molecular Devices Corporation, Sunnyvale, Calif.). Data was expressed as fluorescence emission intensity units as a function of time of incubation and analyzed using SOFTmax PRO® v. […]
(§4) a) 50% effective dose/4; b) 50% effective dose/2; c) 50% effective dose; d) 50% effective dose*2; and e) 50% effective dose*4. The dose that inhibits 50% of proliferation for each drug was determined in preliminary experiments in which cells were treated with a wide range of concentrations of SAHA alone and Irinotecan, 5-FU and Docetaxel alone. […]

[1] = tested on: T24 (bladder carcinoma) cells; experiment: alamarBlue proliferation inhibition, drug combination experiments, T24; assay type: cell-based; settings: Homo sapiens, 96 h, agent alone, 4 days, read-out: 50% inhibition Effective Dose
Method: as §1, §2, §3, §4

IC50 (LnCap (prostate) cells): 1.7 µM
IC50 [1]: 5 µM
SMILES: O=C(CCCCCCC(=O)Nc1ccccc1)NO [SAHA, suberoylanilide hydroxamic acid]
